The list shows a part of the results. Most values lie at the level of the controls, where differences are scatter.
Compound: Cc1nc(Nc2ncc(C(=O)Nc3c(C)cccc3Cl)s2)cc(N2CCN(CCO)CC2)n1 [dasatinib]
Experiment: log2 fold change of tryptic peptide abundance, ligand vs vehicle (limited proteolysis) (log2 ratio); higher = more trypsin-susceptible (destabilized)
Conditions: ligand concentration: 5 uM; sample: K562 cleared lysate

The chains behind the UniProt entries cited, without tags or fusion partners. Where a name states a change or a piece, a line headed by the entry shows the natural chain unless it says otherwise.
UniProt P55039: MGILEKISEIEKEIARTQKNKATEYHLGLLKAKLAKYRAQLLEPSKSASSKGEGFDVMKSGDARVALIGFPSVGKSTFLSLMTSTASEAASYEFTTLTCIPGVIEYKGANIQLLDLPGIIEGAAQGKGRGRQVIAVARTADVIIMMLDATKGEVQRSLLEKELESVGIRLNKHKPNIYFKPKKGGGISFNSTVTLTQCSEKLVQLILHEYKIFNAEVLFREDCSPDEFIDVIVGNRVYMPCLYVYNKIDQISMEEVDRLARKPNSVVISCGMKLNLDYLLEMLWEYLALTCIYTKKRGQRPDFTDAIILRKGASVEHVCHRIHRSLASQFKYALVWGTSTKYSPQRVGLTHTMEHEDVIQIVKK
UniProt P56192: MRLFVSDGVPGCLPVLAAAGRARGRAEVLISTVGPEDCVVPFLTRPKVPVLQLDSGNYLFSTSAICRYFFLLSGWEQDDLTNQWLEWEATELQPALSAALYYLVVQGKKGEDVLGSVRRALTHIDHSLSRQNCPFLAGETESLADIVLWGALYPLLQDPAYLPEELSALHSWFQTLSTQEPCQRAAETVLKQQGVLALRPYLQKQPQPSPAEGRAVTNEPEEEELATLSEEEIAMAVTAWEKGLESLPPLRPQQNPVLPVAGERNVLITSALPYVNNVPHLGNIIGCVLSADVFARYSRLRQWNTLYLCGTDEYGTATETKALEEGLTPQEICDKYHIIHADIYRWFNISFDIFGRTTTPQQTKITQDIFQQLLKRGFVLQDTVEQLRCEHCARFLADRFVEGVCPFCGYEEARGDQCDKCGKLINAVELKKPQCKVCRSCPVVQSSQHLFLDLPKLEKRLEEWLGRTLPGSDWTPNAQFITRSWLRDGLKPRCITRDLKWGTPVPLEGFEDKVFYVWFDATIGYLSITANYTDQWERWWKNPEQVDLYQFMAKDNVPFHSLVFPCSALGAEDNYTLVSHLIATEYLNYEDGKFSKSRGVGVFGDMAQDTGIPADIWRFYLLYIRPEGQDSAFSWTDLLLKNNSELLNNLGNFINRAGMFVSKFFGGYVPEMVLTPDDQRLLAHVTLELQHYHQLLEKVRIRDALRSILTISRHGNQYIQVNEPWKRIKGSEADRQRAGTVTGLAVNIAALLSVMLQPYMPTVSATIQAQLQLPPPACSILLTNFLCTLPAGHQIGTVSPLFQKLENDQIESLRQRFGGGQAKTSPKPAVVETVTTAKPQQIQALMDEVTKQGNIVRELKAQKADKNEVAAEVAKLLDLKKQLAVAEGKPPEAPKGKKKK
UniProt P62834: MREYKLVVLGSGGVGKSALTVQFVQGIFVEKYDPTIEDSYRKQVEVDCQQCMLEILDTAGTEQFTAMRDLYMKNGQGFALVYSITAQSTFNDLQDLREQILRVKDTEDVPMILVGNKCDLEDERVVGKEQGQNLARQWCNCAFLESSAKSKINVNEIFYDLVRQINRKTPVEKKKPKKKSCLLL
UniProt P61960, whole entry: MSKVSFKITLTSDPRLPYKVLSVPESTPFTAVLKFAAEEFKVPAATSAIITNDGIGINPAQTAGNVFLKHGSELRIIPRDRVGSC
UniProt P63241: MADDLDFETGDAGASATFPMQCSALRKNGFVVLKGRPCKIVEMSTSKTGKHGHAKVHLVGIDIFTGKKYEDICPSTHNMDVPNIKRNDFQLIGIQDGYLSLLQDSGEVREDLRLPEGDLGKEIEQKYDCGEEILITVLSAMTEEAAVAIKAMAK
UniProt P62306, whole entry, looked up: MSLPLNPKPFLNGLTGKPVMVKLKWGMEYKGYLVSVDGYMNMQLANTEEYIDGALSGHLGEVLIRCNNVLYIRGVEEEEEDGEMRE
UniProt P61204: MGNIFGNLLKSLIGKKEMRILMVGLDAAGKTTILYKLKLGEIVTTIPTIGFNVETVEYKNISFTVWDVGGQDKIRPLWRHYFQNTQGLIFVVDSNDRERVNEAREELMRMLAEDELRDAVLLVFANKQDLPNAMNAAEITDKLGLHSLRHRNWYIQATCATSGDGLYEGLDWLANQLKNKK
UniProt P58557: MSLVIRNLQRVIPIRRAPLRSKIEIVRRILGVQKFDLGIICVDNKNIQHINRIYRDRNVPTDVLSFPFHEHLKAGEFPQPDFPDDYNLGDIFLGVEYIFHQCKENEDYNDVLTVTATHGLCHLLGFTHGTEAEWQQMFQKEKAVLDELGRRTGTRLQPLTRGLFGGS
UniProt P62937, whole entry, looked up: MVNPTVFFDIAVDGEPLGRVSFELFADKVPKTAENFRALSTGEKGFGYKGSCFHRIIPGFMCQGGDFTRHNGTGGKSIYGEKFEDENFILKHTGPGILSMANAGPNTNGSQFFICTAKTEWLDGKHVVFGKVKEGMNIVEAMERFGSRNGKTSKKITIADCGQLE
UniProt P57081: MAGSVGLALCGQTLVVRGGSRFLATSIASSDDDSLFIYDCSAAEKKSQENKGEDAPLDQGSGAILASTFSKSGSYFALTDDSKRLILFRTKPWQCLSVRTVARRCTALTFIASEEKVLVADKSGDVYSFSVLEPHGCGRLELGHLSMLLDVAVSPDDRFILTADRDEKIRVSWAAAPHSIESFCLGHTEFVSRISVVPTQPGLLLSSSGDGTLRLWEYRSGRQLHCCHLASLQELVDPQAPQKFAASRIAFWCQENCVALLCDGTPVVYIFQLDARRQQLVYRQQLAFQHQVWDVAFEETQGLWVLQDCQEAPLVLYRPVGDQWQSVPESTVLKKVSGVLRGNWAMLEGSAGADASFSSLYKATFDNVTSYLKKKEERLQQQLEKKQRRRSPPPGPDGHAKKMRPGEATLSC

Target	log2 fold change
DRG2 (peptide sequence: YRAQLLEPSK, peptide start residue: 37) (UniProt P55039)	-0.282
MARS (peptide sequence: FGGGQAK, peptide start residue: 817) (UniProt P56192)	0.241
UniProt P62834 (peptide sequence: LVVLGSGGVGK, peptide start residue: 6)	0.127
UniProt P61960 (peptide sequence: ITLTSDPRLPYK, peptide start residue: 8)	-0.0581
UniProt P63241 (peptide sequence: EDLRLPEGDLGK, peptide start residue: 110)	0.071
UniProt P62306 (peptide sequence: PFLNGLTGKPVMVK, peptide start residue: 9)	0.216
ARF3 (peptide sequence: NISFTVWDVGGQDKIRPLWR, peptide start residue: 60) (UniProt P61204)	0.23
YBEY (peptide sequence: NIQHINR, peptide start residue: 46) (UniProt P58557)	-0.26
PPIA (peptide sequence: FEDENFILK, peptide start residue: 83) (UniProt P62937)	0.279
UniProt P62805 (peptide sequence: ISGLIYEETR, peptide start residue: 47)	0.0417
WDR4 (peptide sequence: ATFDNVTSYLK, peptide start residue: 363) (UniProt P57081)	0.0843

No new results follow: an excerpt of the list.
Target	log2 fold change
UniProt P61960 (peptide sequence: ITLTSDPRLPYK, peptide start residue: 8)	-0.0581
UniProt P63241 (peptide sequence: EDLRLPEGDLGK, peptide start residue: 110)	0.071

Reference: the supplement of paper PMC12819154, “High-throughput peptide-centric local stability assay extends protein–ligand identification to membrane proteins, tissues and bacteria” (Nature Structural & Molecular Biology, 2025)
